Results deposited as PubChem BioAssay AID652243 (Drosophila RNAi Screening Center, 2013)

Screen: 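Fly regulators of androgen-dependent reporter output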 (primary screen)
System: Drosophila S2R+ cells
Knock-down reagent: long dsRNA against Drosophila genes
Duration: 72 h (48 h, then 24 h hormone)
Conditions: synthetic androgen R1881 at 10 nM for 24 h
Read-out: 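Per-well raw luminescence of the androgen-driven firefly reporter and of the Renilla control, two replicates each, without normalisation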
Direction: firefly reporter light: higher = more light from androgen-responsive reporter; Renilla control light: higher = more constitutive control signal (cell number, transfection)
Active means: 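Across duplicate plates, a knock-down whose log firefly/Renilla ratio shifted a set fold down or up from the GFP/LacZ control mean was a hit; the downward cut appears as both 1.5 and 3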
Calls: active = hit: reporter lowered or raised; inactive = no hit
The deposit covers about 24,000 reagents; this is a random part of those that have a named target and a result. In the full data, 246 (1%) were called active. 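Plates not normalised; calls are printed but the firefly/Renilla ratio behind them is not deposited; fold cut for lowering reported inconsistently.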 Raw values are not corrected between plates. A number with no mark means an inactive call. Reagents against one gene are numbered here. Reagent sequences are not shown. Not stated in the record: the amount of reagent.

predicted target | reagent no. | firefly reporter light, replicate 1 | firefly reporter light, replicate 2 | Renilla control light, replicate 1 | Renilla control light, replicate 2
pdm3 | 1 | 4.71e5 | 4.60e5 | 2.67e6 | 2.46e6
pdm3 | 2 | 9.36e5 | 1.09e6 | 2.16e6 | 2.01e6
pdm3 | 3 | 4.24e5 | 4.37e5 | 7.60e5 | 8.14e5
pdm3 | 4 | 3.98e5 | 4.87e5 | 1.01e6 | 9.49e5
prtp | 1 | 5.01e5 | 4.82e5 | 3.91e6 | 3.45e6
prtp | 2 | 5.50e5 | 9.06e5 | 8.36e5 | 1.15e6
nac | 1 | 1.23e5 | 1.41e5 | 2.76e6 | 1.99e6
Bdbt | 1 | 1.62e5 | 1.95e5 | 3.32e6 | 4.03e6
AP-2mu | 1 | 96578 | 88212 | 5.73e5 | 6.97e5
AP-2mu | 2 | 3.82e5 | 5.90e5 | 7.99e5 | 1.03e6
CG13760 | 1 | 1.66e5 | 2.86e5 | 3.00e6 | 2.57e6
Fife | 1 | 76941 | 67098 | 1.62e6 | 1.53e6
Fife | 2 | 1.07e5 | 1.06e5 | 1.23e6 | 1.02e6
Fife | 3 | 9.98e5 | 9.28e5 | 1.13e6 | 1.20e6
Fife | 4 | 6.92e5 | 6.24e5 | 7.09e5 | 9.57e5
CG13965 | 1 | 1.67e5 | 1.12e5 | 1.05e6 | 1.34e6
Pep | 1 | 45311 | 64493 | 6.72e5 | 9.40e5
Cpr78Ca | 1 | 3.10e5 | 2.47e5 | 2.54e6 | 2.67e6
CG30192 | 1 | 1.53e5 | 2.06e5 | 2.11e5 | 4.05e5
CG5096 | 1 | 1.08e5 | 79267 | 9.60e5 | 6.11e5
CG7841 | 1 | 3.83e5 | 2.97e5 | 2.82e6 | 2.71e6
CG7130 | 1 | 2.65e5 | 2.44e5 | 3.45e6 | 2.48e6
Letm1 | 1 | 6.48e5 | 6.38e5 | 1.40e6 | 1.61e6
CG34107 | 1 | 98678 | 1.68e5 | 1.83e6 | 1.86e6

A stretch of the results above:
predicted target | reagent no. | firefly reporter light, replicate 1 | firefly reporter light, replicate 2 | Renilla control light, replicate 1 | Renilla control light, replicate 2
pdm3 | 1 | 4.71e5 | 4.60e5 | 2.67e6 | 2.46e6
pdm3 | 2 | 9.36e5 | 1.09e6 | 2.16e6 | 2.01e6
